Results published in patent US20210400977A1, “META-DIAMIDE COMPOUNDS FOR CONTROLLING INVERTEBRATE PESTS” (FMC Corporation, priority 2018, published 2021).
Some results were stated once for a whole list of compounds, not compound by compound.

What follows are compounds tested on diamondback moth (Plutella xylostella (L.)) (assay: Test A: control of diamondback moth, foliar spray on mustard plant). Conditions: sprayed at 50 ppm, assessed after 6 days, value is the feeding damage limit.
Format: in vivo

| SMILES | control efficacy (40% or less feeding damage and/or 100% mortality) [%] |
| --- | --- |
| O=C(Nc1ccc(F)c(CNC(=O)C(F)(F)F)c1F)C1C(c2cc(Cl)cc(Cl)c2)C1(Cl)Cl (stereo not drawn) [Compound 2] | ≤ 40 |
| CC(C#N)C(=O)NCc1c(F)ccc(NC(=O)C2C(c3ccc(F)c(C(F)(F)F)c3)C2(Cl)Cl)c1F (stereo not drawn) [Compound 141] | ≤ 40 |
| COC(=O)CC(=O)NCc1cc(NC(=O)C2C(c3ccc(F)c(C(F)(F)F)c3)C2(Cl)Cl)ccc1Cl (stereo not drawn) [Compound 112] | ≤ 40 |
| COCC(=O)NCc1cc(NC(=O)C2C(c3ccc(F)cc3)C2(Cl)Cl)ccc1Cl (stereo not drawn) [Compound 70] | ≤ 40 |
| CC(=O)NCc1cc(NC(=O)C2C(c3cc(F)cc(F)c3)C2(Cl)Cl)ccc1Cl (stereo not drawn) [Compound 82] | ≤ 40 |
| O=C(NCc1cc(NC(=O)C2C(c3cc(F)cc(F)c3)C2(Cl)Cl)ccc1Cl)C1CCC1 (stereo not drawn) [Compound 67] | ≤ 40 |
| O=C(NCc1cc(NC(=O)C2C(c3ccc(F)cc3)C2(Cl)Cl)ccc1Cl)C1CCC1 (stereo not drawn) [Compound 68] | ≤ 40 |
| O=C(NCc1cc(NC(=O)C2C(c3ccccc3)C2(Cl)Cl)ccc1F)C1CC1 (stereo not drawn) [Compound 11] | ≤ 40 |
| CC(=O)NCc1cc(NC(=O)C2C(c3cc(F)c(F)c(F)c3)C2(Cl)Cl)ccc1Cl (stereo not drawn) [Compound 105] | ≤ 40 |
| CC(C)(C)C(=O)NCc1cc(NC(=O)C2C(c3ccc(Cl)c(Cl)c3)C2(Cl)Cl)ccc1Cl (stereo not drawn) [Compound 73] | ≤ 40 |
| O=C(Nc1ccc(F)c(CNC(=O)C2(F)CC2)c1)C1C(c2ccc(F)c(F)c2)C1(Cl)Cl (stereo not drawn) [Compound 94] | ≤ 40 |
| O=C(NCc1cc(NC(=O)C2C(c3cc(F)c(F)c(F)c3)C2(Cl)Cl)ccc1Cl)C1CCC1 (stereo not drawn) [Compound 107] | ≤ 40 |
| CCC(=O)NCc1cc(NC(=O)C2C(c3cc(F)cc(F)c3)C2(Cl)Cl)ccc1Cl (stereo not drawn) [Compound 81] | ≤ 40 |
| CC(=O)NCc1cc(NC(=O)C2C(c3ccc4c(c3)OC(F)(F)O4)C2(Cl)Cl)ccc1F (stereo not drawn) [Compound 5] | ≤ 40 |
| O=C(Nc1ccc(Cl)c(CNC(=O)N2CCOCC2)c1)C1C(c2cc(Cl)cc(Cl)c2)C1(Cl)Cl (stereo not drawn) [Compound 45] | ≤ 40 |
| COC(=O)NCc1cc(NC(=O)C2C(c3ccc(F)cc3)C2(Cl)Cl)ccc1F (stereo not drawn) [Compound 234] | ≤ 40 |
| COCC(=O)NCc1cc(NC(=O)C2C(c3cc(F)cc(F)c3)C2(Cl)Cl)ccc1Cl (stereo not drawn) [Compound 69] | ≤ 40 |
| CS(=O)(=O)CC(=O)NCc1cc(NC(=O)C2C(c3cc(F)c(F)c(F)c3)C2(Cl)Cl)ccc1F (stereo not drawn) [Compound 195] | ≤ 40 |
| CC(C)(C)C(=O)NCc1cc(NC(=O)C2C(c3ccc(F)c(F)c3)C2(Cl)Cl)ccc1Cl (stereo not drawn) [Compound 93] | ≤ 40 |

Same assay, conditions: sprayed at 250 ppm, assessed after 6 days, value is the feeding damage limit

| SMILES | control efficacy (40% or less feeding damage and/or 100% mortality) [%] |
| --- | --- |
| O=C(Nc1ccc(F)c(CNC(=O)C(F)(F)F)c1F)C1C(c2cc(Cl)cc(Cl)c2)C1(Cl)Cl (stereo not drawn) [Compound 2] | ≤ 40 |
| O=C(NCc1cc(NC(=O)C2C(c3cc(Cl)cc(Cl)c3)C2(Cl)Cl)ccc1Cl)c1ccc(F)cc1F (stereo not drawn) [Compound 63] | ≤ 40 |
| O=C(NCc1cc(NC(=O)C2C(c3ccsc3)C2(F)F)ccc1Cl)C1CC1 (stereo not drawn) [Compound 236] | ≤ 40 |
| O=C(NCc1cc(NC(=O)C2C(c3ccccc3)C2(Cl)Cl)ccc1F)C1CC1 (stereo not drawn) [Compound 11] | ≤ 40 |
| CC(=O)NCc1cc(NC(=O)C2C(c3ccc4c(c3)OC(F)(F)O4)C2(Cl)Cl)ccc1F (stereo not drawn) [Compound 5] | ≤ 40 |
| O=C(Nc1ccc(Cl)c(CNC(=O)N2CCOCC2)c1)C1C(c2cc(Cl)cc(Cl)c2)C1(Cl)Cl (stereo not drawn) [Compound 45] | ≤ 40 |
| Cc1ccc(NC(=O)C2C(c3cc(Cl)cc(Cl)c3)C2(Cl)Cl)cc1CNC(=O)C1CC1 (stereo not drawn) [Compound 134] | ≤ 40 |
| N#CC1(C(=O)NCc2cc(NC(=O)C3C(c4cc(Cl)cc(Cl)c4)C3(F)F)ccc2Cl)CC1 (stereo not drawn) [Compound 46] | ≤ 40 |
